The supplement of paper PMC10849652
The other results are listed elsewhere or left out.

Chains of the proteins cited; added tags and fusions are not shown. Lines headed by an entry give the natural chain unless they say otherwise; changes in a name come on top.
UniProt Q9H3S4: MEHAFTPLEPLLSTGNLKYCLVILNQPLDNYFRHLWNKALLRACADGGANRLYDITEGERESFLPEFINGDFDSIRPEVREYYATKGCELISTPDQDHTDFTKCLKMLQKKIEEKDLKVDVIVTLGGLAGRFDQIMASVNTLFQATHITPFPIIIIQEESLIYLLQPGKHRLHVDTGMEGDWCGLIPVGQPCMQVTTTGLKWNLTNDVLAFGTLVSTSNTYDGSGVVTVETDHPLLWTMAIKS
UniProt O60784, whole entry, looked up: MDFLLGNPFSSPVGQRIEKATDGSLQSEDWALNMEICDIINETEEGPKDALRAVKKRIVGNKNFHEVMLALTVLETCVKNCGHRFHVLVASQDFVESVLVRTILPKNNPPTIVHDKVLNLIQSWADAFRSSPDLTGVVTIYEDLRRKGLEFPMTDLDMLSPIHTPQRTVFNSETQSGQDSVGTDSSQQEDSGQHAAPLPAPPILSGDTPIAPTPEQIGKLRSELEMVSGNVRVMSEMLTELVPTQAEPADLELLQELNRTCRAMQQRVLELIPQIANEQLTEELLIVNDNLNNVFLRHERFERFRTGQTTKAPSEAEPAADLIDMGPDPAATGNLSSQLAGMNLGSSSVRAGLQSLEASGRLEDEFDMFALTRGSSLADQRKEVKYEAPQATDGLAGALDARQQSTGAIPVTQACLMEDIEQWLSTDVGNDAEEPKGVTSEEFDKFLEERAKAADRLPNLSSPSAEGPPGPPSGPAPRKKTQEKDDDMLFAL
UniProt Q13114: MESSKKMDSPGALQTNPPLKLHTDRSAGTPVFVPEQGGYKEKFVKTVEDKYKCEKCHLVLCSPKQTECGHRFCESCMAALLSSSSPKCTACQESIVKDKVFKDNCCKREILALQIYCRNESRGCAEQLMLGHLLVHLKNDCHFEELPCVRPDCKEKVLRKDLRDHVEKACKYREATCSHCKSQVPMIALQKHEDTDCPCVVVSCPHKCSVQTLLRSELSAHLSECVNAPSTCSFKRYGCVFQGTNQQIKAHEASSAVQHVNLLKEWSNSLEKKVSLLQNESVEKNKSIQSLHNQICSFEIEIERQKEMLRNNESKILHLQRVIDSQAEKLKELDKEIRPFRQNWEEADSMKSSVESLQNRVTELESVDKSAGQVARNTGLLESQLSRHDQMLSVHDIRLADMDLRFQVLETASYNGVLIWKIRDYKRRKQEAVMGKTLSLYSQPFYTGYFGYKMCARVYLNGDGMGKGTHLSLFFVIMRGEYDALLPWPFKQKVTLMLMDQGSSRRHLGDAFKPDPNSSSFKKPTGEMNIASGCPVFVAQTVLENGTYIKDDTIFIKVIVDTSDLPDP
UniProt P22105: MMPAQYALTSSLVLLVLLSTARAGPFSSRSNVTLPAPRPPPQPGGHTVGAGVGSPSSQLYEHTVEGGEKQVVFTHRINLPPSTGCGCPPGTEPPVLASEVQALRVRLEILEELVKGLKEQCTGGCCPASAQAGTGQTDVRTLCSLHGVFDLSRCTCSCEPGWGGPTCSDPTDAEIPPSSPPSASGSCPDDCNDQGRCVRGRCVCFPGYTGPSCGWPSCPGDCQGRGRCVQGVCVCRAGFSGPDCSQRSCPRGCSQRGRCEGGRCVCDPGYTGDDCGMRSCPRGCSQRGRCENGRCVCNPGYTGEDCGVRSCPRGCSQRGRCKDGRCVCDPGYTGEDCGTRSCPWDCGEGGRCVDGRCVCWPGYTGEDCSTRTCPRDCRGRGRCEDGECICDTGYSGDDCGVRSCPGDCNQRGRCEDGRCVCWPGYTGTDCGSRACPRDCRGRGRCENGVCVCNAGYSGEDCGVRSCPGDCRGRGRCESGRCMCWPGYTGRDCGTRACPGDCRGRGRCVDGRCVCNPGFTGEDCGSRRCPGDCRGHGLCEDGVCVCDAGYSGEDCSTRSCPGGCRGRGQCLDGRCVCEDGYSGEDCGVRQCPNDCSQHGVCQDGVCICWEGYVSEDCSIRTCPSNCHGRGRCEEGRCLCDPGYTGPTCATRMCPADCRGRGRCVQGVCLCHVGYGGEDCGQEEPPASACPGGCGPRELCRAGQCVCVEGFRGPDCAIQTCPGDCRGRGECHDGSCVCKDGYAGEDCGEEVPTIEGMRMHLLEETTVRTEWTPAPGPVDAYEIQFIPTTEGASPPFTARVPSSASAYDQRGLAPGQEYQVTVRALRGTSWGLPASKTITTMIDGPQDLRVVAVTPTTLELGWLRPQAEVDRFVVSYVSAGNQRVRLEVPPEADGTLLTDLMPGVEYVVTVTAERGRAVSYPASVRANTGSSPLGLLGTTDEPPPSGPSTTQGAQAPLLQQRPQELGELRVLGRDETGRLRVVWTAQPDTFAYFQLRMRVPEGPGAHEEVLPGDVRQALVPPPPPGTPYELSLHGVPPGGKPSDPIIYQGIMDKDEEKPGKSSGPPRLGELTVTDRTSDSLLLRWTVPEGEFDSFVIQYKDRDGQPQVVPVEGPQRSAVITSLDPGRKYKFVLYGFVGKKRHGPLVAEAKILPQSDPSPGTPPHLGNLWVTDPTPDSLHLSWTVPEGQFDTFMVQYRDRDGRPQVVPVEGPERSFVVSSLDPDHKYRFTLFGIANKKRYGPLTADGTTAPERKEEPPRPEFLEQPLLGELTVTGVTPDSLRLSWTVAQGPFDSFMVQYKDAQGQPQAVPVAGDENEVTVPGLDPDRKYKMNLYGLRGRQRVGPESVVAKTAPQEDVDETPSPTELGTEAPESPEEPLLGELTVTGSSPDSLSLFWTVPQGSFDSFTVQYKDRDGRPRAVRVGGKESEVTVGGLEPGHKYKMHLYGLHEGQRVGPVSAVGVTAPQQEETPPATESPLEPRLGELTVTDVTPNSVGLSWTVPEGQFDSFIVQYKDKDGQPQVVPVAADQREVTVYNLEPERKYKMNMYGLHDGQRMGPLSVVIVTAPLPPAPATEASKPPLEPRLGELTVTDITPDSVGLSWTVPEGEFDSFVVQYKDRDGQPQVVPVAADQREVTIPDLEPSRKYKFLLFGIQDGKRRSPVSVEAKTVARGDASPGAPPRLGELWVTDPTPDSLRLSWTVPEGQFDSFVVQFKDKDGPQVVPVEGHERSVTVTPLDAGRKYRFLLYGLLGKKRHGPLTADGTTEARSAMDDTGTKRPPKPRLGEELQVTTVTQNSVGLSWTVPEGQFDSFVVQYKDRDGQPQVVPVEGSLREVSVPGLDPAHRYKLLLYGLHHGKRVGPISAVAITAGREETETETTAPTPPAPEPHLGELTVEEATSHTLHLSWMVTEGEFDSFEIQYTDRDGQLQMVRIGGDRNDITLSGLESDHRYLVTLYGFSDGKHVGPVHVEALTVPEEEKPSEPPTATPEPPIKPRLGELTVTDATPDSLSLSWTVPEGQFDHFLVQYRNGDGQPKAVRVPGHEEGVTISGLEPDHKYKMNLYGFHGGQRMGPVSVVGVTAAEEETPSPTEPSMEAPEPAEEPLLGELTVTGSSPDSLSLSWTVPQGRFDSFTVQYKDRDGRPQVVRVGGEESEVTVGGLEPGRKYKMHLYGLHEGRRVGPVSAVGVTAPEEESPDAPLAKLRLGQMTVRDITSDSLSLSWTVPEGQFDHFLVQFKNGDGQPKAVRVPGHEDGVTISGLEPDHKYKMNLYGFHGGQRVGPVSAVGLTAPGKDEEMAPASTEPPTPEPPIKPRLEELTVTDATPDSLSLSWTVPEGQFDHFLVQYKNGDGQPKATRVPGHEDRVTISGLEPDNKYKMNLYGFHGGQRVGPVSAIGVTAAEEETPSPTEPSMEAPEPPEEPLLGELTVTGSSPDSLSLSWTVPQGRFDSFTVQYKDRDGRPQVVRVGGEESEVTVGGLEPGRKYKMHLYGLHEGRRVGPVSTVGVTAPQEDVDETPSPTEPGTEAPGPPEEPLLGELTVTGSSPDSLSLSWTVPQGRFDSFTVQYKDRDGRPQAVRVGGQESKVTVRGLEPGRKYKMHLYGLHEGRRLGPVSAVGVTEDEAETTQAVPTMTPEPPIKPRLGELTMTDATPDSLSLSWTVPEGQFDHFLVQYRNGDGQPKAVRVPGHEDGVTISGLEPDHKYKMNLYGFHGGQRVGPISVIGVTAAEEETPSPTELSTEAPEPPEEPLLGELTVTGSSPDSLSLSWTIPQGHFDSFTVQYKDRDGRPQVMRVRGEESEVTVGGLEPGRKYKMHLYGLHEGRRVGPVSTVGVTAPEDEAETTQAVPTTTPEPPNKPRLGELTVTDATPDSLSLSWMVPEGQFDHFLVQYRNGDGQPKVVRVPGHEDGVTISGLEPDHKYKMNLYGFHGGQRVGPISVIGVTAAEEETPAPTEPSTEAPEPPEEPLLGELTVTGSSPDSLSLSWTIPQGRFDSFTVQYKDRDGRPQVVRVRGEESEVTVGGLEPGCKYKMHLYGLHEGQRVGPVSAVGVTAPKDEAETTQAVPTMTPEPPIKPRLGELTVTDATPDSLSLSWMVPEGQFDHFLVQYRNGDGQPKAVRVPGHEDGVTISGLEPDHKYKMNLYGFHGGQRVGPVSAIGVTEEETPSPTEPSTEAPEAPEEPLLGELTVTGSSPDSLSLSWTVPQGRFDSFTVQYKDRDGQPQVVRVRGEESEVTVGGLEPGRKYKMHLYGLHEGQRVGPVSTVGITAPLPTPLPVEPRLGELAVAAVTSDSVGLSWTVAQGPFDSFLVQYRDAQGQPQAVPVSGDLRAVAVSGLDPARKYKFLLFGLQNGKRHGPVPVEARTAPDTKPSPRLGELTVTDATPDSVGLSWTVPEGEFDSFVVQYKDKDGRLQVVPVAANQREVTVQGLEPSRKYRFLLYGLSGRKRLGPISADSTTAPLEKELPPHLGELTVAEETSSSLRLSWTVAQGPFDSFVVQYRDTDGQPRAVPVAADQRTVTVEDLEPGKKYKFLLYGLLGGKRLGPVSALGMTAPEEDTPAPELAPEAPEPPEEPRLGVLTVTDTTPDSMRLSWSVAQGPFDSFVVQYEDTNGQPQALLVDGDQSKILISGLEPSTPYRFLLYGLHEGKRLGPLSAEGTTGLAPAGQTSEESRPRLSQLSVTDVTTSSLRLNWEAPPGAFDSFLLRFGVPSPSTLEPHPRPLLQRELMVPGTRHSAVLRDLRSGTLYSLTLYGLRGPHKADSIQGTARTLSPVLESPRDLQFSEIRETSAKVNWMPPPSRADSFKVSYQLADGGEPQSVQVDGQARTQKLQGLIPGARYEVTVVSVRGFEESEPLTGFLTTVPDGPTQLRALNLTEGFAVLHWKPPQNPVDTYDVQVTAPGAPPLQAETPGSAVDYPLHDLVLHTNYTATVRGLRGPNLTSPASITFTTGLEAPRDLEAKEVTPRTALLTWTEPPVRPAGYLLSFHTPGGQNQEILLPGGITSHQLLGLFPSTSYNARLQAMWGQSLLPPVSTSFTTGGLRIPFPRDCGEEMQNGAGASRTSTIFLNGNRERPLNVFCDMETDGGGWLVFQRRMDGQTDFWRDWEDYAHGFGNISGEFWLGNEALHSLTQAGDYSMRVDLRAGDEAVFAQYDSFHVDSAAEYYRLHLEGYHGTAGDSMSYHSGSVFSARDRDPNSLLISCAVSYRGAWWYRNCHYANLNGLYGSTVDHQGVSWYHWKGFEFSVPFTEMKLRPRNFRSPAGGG
UniProt P14373: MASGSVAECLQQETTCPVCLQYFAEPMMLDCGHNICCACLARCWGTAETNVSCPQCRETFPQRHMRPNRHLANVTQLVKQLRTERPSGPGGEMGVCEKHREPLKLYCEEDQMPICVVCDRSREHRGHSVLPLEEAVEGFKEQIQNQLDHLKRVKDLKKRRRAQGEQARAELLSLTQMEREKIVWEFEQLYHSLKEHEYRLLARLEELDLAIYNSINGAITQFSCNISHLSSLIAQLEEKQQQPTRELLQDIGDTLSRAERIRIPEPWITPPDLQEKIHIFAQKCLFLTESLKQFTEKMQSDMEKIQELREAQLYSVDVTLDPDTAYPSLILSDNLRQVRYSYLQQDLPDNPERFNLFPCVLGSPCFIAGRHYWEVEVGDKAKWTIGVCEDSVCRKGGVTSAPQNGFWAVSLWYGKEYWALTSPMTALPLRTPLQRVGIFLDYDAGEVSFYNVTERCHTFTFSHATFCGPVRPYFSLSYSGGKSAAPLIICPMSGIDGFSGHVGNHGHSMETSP
UniProt O43399: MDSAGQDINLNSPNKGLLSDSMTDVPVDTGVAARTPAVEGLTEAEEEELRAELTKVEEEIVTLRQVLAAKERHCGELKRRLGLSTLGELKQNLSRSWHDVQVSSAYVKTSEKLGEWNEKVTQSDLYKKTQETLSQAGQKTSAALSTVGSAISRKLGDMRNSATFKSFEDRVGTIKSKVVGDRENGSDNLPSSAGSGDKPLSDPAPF
UniProt Q5T2D2: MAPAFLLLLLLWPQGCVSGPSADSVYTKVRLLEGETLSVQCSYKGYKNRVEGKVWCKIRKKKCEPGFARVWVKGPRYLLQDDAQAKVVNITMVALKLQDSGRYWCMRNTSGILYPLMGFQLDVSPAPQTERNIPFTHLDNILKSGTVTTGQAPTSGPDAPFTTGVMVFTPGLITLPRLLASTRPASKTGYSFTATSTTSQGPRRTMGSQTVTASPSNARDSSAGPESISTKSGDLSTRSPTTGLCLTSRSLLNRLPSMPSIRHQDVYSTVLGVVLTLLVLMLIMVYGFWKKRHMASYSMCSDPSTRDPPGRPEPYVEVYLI

Assays:
Assay in all cases: log2 fold change, soluble protein after heating vs DMSO (PISA); higher = thermal stabilisation; K562 cells, 10 uM, 30 min; active = over 0.2 and 3.5 SD of the protein, either way, in both replicates (recomputed)
[1] = compound: NC(=O)Nc1cc(-c2cccc(F)c2)sc1C(=O)N[C@H]1CCCNC1
In short: (§1)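 K562 cells at 2×10^6 cells/mL were given 10 μM compound for 30 min. Aliquots then went through 3 min of heating across 48°C-58°C, were pooled, and were extracted in PBS with 0.5% NP-40 at 4°C, and the supernatant after 21,000xg for 90 min was quantified by TMTpro 16plex LC-MS/MS with channel sums equalised. Thermal stability relative to control samples, from duplicates, is given as log2 fold change.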

[2] = compound: NC1(c2ccc(-c3nc4ccn5c(=O)[nH]nc5c4cc3-c3ccccc3)cc2)CCC1
In short: as §1

[3] = compound: NCC(=O)Nc1ccc(-n2nc(C(F)(F)F)cc2-c2ccc3c(ccc4ccccc43)c2)cc1
In short: as §1

entinostat = compound: Nc1ccccc1NC(=O)c1ccc(CNC(=O)OCc2cccnc2)cc1 [entinostat]
In short: as §1

vorinostat = compound: O=C(CCCCCCC(=O)Nc1ccccc1)NO [vorinostat]
In short: as §1

silmitasertib = compound: O=C(O)c1ccc2c(c1)nc(Nc1cccc(Cl)c1)c1ccncc12 [silmitasertib]
In short: as §1

[4] = compound: O=C1NC(=O)C(c2cnc3ccccn23)=C1c1cn2c3c(cc(F)cc13)CN(C(=O)N1CCCCC1)CC2
In short: as §1

[5] = compound: NC(=O)c1cnc(N[C@@H]2CCCC[C@@H]2N)nc1Nc1cccc(-n2nccn2)c1
In short: as §1

citarinostat = compound: O=C(CCCCCCNC(=O)c1cnc(N(c2ccccc2)c2ccccc2Cl)nc1)NO [citarinostat]
In short: as §1

[6] = compound: c1cc(OCCN2CCCCC2)cc(-c2n[nH]c3ccc(-c4nnc[nH]4)cc23)c1
In short: as §1

Measured: log2 fold change

TPK1 (UniProt Q9H3S4)
inactive: [1] -0.009 | [2] 0.19 | [3] 0.067 | entinostat 0.016 | vorinostat 0.015 | silmitasertib 0.091 | [4] -0.017

TRAPPC2 isoform 3 (UniProt P0DI81)
inactive: [5] -0.253 | [2] -0.016 | [3] -0.123 | vorinostat -0.017 | silmitasertib 0.032

TOM1 (UniProt O60784)
inactive: [1] 0.044 | [2] -0.176 | entinostat 0.062 | vorinostat 0.048 | silmitasertib 0.017 | [4] -0.077

TRAF3 (UniProt Q13114)
inactive: [3] 0.026

TNXB isoform 4 (UniProt P22105)
inactive: [2] -0.001 | citarinostat -0.056 | silmitasertib 0.12 | [6] -0.112

TRIM27 (UniProt P14373)
inactive: [5] -0.287 | vorinostat 0.066

TPD52L2 isoform 3 (UniProt O43399)
inactive: [5] -0.146 | [2] 0.273 | [3] 0.009 | vorinostat 0.077 | silmitasertib -0.281 | [4] -0.097

TPRG1L (UniProt Q5T0D9)
inactive: [1] 0.087 | [2] -0.065 | entinostat 0.026 | citarinostat 0.191 | silmitasertib 0.141 | [4] 0 | [6] 0.069

2 neighbouring records out of the list so far:
TNXB isoform 4 (UniProt P22105)
inactive: [2] -0.001 | citarinostat -0.056 | silmitasertib 0.12 | [6] -0.112

TRIM27 (UniProt P14373)
inactive: [5] -0.287 | vorinostat 0.066

Going on with the list:

TREML2 (UniProt Q5T2D2)
inactive: [1] -0.238 | [2] -0.099 | entinostat -0.168 | silmitasertib -0.034
